Paper PMC7862700
The list shows a part of the results, in another mix than the full data. At the low end of the ranking the order means little.

Target: T1, ELK1 (UniProt P19419)
T1 sequence: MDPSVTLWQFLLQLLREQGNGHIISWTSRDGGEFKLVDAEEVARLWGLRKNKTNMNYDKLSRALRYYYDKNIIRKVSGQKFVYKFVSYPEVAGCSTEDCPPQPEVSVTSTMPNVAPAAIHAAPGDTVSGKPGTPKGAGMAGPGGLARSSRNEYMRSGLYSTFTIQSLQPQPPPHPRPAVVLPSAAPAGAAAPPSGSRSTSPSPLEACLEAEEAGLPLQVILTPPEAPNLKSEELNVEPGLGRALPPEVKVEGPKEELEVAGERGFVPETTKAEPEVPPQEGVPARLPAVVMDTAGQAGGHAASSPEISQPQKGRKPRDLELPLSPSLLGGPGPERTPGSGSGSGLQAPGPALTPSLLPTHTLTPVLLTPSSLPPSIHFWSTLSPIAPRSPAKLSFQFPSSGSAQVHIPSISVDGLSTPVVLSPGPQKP
Test: DAPPL (digital affinity profiling via proximity ligation, sequencing)
Conditions: 10 mM Tris-HCl pH 7.5, 50 mM NaCl, 1 mM DTT, 4% glycerol, room temperature, 30 min; GST-TFs on glutathione beads, 16-mer random dsDNA library, 0.1% …; high values mean tight binding; double strand, one strand shown; scale: fold enrichment (6-mer frequency, TF over GST control)

For ATCGCG, which binding signal is on record?
Its binding signal is 0.892.

Which binding signal does the source give for GCTAGA here?
Its binding signal is 0.966.

With TTTAGA as the sequence, how does the binding signal read?
The binding signal was 0.995.

TGACGG was tested. Which binding signal did it give?
Its binding signal is 0.959.

Which binding signal does the source give for CATGCG here?
Its binding signal is 0.982.

GTAATC was tested. Which binding signal did it give?
The binding signal was 1.14.

How did the binding signal turn out when TAAGGA was run?
The binding signal was 0.855.

For TAAGTC, which binding signal is on record?
Its binding signal is 0.941.

For TCCGAG, which binding signal is on record?
The binding signal was 0.9.

Which binding signal does the source give for TTAGAG here?
Its binding signal is 0.894.

How did the binding signal turn out when GAATAG was run?
The binding signal was 0.979.

How did the binding signal turn out when GACCCA was run?
The binding signal was 0.912.

With GAAAGG as the sequence, how does the binding signal read?
The binding signal was 0.935.

How did the binding signal turn out when GTGTTG was run?
Its binding signal is 0.95.

Which binding signal does the source give for AGGGAT here?
Its binding signal is 0.776.

With ACCCGT as the sequence, how does the binding signal read?
Its binding signal is 0.862.

Which binding signal does the source give for GTTGAA here?
The binding signal was 0.86.

Which binding signal does the source give for CAGAAC here?
Its binding signal is 0.921.

How did the binding signal turn out when AGGATT was run?
The binding signal was 0.869.

For GAAAGC, which binding signal is on record?
Its binding signal is 0.91.

How did the binding signal turn out when ACGGTA was run?
The binding signal was 1.03.

With TAGTCA as the sequence, how does the binding signal read?
Its binding signal is 0.924.

Which binding signal does the source give for GGAATA here?
Its binding signal is 0.854.

With CTAGTG as the sequence, how does the binding signal read?
Its binding signal is 0.865.

TGCGTC was tested. Which binding signal did it give?
Its binding signal is 0.914.

AAGGTC was tested. Which binding signal did it give?
The binding signal was 0.922.

GGCAGC was tested. Which binding signal did it give?
Its binding signal is 1.02.

How did the binding signal turn out when CATAGA was run?
Its binding signal is 0.9.

How did the binding signal turn out when GCAGGT was run?
The binding signal was 0.916.

With GCGGCA as the sequence, how does the binding signal read?
The binding signal was 0.883.

GTGGTA was tested. Which binding signal did it give?
Its binding signal is 0.912.

For GCCTGA, which binding signal is on record?
Its binding signal is 1.13.

For CATAAA, which binding signal is on record?
Its binding signal is 1.

TAGGCC was tested. Which binding signal did it give?
Its binding signal is 0.911.

For GTCACC, which binding signal is on record?
Its binding signal is 0.963.

For GACTTG, which binding signal is on record?
The binding signal was 0.856.

ACTCAG was tested. Which binding signal did it give?
The binding signal was 0.998.

With TTCGGG as the sequence, how does the binding signal read?
Its binding signal is 0.745.

AGAAGG was tested. Which binding signal did it give?
The binding signal was 0.675.
